Some of these results come from one statement about several compounds together.
Target: T1, GR (Homo sapiens, UniProt P04150)
T1 sequence (P04150 1-777): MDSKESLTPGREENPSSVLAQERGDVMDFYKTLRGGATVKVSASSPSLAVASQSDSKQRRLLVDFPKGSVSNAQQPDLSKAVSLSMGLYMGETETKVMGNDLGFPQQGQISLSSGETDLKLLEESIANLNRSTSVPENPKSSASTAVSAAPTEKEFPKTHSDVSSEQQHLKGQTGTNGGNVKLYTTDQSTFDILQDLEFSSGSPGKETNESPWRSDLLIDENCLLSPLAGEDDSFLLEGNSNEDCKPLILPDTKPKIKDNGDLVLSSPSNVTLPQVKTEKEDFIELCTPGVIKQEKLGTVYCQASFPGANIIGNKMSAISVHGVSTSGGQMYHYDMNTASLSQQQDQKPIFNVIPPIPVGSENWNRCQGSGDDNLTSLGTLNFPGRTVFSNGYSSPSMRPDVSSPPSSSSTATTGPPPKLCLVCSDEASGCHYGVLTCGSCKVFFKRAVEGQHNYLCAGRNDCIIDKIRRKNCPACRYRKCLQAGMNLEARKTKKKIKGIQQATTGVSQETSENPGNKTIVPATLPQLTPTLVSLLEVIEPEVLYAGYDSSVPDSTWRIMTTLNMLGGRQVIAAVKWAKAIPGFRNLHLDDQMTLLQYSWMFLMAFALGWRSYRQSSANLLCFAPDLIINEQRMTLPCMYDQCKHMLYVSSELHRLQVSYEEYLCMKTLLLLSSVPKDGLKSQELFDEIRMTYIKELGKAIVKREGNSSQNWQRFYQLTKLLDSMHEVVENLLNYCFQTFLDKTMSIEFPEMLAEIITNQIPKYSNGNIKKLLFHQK
Assay: Luciferase assays, GR-responsive reporters, A549 cells
Type: cell-based
Parameters: endogenous in cells; host or cells: A549
Settings: pENaC-luc, 18 hr
Protocol: Transfections. The day prior to transfection, ˜3×10^5 cells were plated in 6-well dishes. Transfections used Lipofectamine 2000 (Invitrogen). 4 μg of total plasmid DNA were used for each transfection. For A549 cells, 500 μL of DNA/lipofectamine complex was added to 1.5 ml of DMEM with pen/strep and 5% FBS. For U2OS cells, 500 μl of DNA/lipofectamine complex was added to 1.5 ml of Optimem. After 3-4 hours of incubation, media was replaced with standard growth media.
Luciferase assays. Luciferase assays used the Promega Dual-Luciferase Reporter system. Briefly, cells were transfected with various firefly luciferase plasmids and pSV40-RL at a ratio of 10:1. The day after transfection, cells were split into 96-well dishes and treated with dex and various drugs. Cells were harvested in 50 μl 1XPLB (Promega) 12-18 hr after drug treatment and luciferase assays were performed on 10 μl of lysate. Luminscence was detected using an Ultra Evolution plate reader (Tecan).

Question: How did the “less potent than Acl and Cin B (GR inhibition)” value turn out when COc1cccc2c1C(=O)c1c(O)c3c(c(O)c1C2=O)C[C@@](O)(C(C)=O)C[C@@H]3O[C@H]1C[C@H](N)[C@H](O)[C@H](C)O1 [daunorubicin] was run?
Answer: Its value is “more than 10 fold”.

Reference: patent publication US8940705B2, “Method of treating disease and selectively modulating transcriptional regulation by a glucocorticoid receptor by administering aclacinomycin and dexamethasone” (The Regents of the University of California, priority 2009, dated 2015)
